{
  "source": "PubChem BioAssay AID624297",
  "about": "(National Center for Advancing Translational Sciences (NCATS), 2012)",
  "note": "Hit rate of the full screen: of about 340,000 compounds, about 6,200 (1.8%) were called active. The inconclusive results got no clear call from the source; some entries with a clear call stand among them for comparison. Calls come from the whole dose curve; as a rule, active = well fitted activation curve with a large enough effect; inconclusive = small, poorly fitted or top-dose-only effect; inactive = no such curve, though single readings can be large or run the other way. A potency beside an inconclusive call is a rough fit, not a confirmed value. Potency is the fitted concentration of half-maximal effect.",
  "data": [
    {"experiment": "A quantitative high throughput screen for small molecules that induce DNA re-replication in SW480 colon adenocarcinoma cells; note: nearly all actives have a fitted effect of over 55% in size; for re-replication activation: % of control where 0% means no effect.", "settings": "Hoechst DNA content imaging, 48 h; re-replication activation: at 46.1 µM (top of the series)", "method_in_brief": "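250 cells/well; 23 nL cpd via pin tool; 48 hr, 37 C, 5% CO2; Hoechst 40 min; imager read of total nuclear intensity, ex 405/em 500-530 nm.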", "values": [
      {"compound": "CCCCNC(=S)N/N=C/c1cccc(OCC)c1O", "re-replication activation": "inactive: -6.9%"},
      {"compound": "Cc1nc(NCCc2ccc(F)cc2)c(C#N)c(C)c1[N+](=O)[O-]", "Potency": "inconclusive: 20.6 µM [activator, single point]"},
      {"compound": "C=CCNC(=O)COC(=O)c1ccc(Cl)c(S(N)(=O)=O)c1", "re-replication activation": "inactive: 6.36%"},
      {"compound": "CCCCNc1c(-c2cccc(SC(C)CC)c2)nc2ccc(Cl)cn12", "note": "(stereo not given)", "re-replication activation": "inactive: -5.86%"},
      {"compound": "CCC(NC(=S)NCc1ccc(F)cc1)c1ccc(C)cc1", "note": "(stereo not given)", "Potency": "inconclusive: 32.6 µM [activator, single point]"},
      {"compound": "Cc1cc(CNC(=O)CC2C(=O)NCCN2Cc2ccc(-c3ccccc3)cc2)nn1C", "note": "(stereo not given)", "Potency": "inconclusive: 29.1 µM [activator, single point]"},
      {"compound": "Cc1ccccc1N1CCN(S(=O)(=O)c2ccc3ccccc3c2)CC1", "Potency": "inconclusive: 7.31 µM [activator, partial curve, poor fit]"},
      {"compound": "O=C1/C(=C\\c2cc(Cl)c(O)c(Cl)c2)SC(=S)N1Cc1ccccc1", "Potency": "inconclusive: 20.6 µM [activator, single point]"},
      {"compound": "C/C(=N\\NC(=O)c1ccc(C)cc1)C1C(=O)c2ccccc2C1=O", "Potency": "inconclusive: 29.1 µM [activator, single point]"},
      {"compound": "CCOC(=O)N1CCN(C(=O)Cn2nc(C)n3nc(-c4ccc(OC)cc4)cc3c2=O)CC1", "Potency": "inconclusive: 32.6 µM [activator, single point]"},
      {"compound": "O=C(COc1ccc2ccccc2c1)NCCn1ccc2ccccc21", "re-replication activation": "inactive: -2.73%"},
      {"compound": "Cc1ccc(SC2=C(N(C)C)C(=O)c3ccccc3C2=O)cc1", "Potency": "inconclusive: 29.1 µM [activator, single point]"},
      {"compound": "O=C(c1ccc([N+](=O)[O-])o1)N1CCN(Cc2ccccc2)CC1", "Potency": "inconclusive: 18.4 µM [activator, single point]"},
      {"compound": "O=C(CSc1nnc(-c2ccccc2)c(-c2ccccc2)n1)Nc1ccc(Br)cn1", "Potency": "inconclusive: 1.64 µM [activator, full curve, poor fit]"},
      {"compound": "COc1ccc(-n2c(C)cc(/C=C3\\C(=N)N4N=C(CC(=O)N5CCOCC5)SC4=NC3=O)c2C)c(OC)c1", "re-replication activation": "inactive: 18.4%"},
      {"compound": "Clc1cc(-c2ccccc2)nc(-c2ccccc2)n1", "re-replication activation": "inactive: 0.708%"},
      {"compound": "OCCOCCn1c(CCNc2nc(-c3ccc(Cl)cc3)cs2)nc2cc(Cl)c(Cl)cc21", "re-replication activation": "inactive: 0.279%"},
      {"compound": "CC1CCN(C(=O)CCNS(=O)(=O)c2ccc(Cl)cc2)CC1", "Potency": "inconclusive: 29.1 µM [activator, single point]"},
      {"compound": "CCN=C1S/C(=C\\c2ccc(N3CCOCC3)cc2C)C(=O)N1CC", "Potency": "inconclusive: 4.61 µM [activator, single point]"},
      {"compound": "COc1cccc2c1C1(O)C2CCCCCCCCCC12OCCCO2", "note": "(stereo not given)", "re-replication activation": "inactive: 15.8%"},
      {"compound": "N=c1c(S(=O)(=O)c2ccc(Cl)cc2)cc2c(=O)n3ccccc3nc2n1C1CCCCC1", "Potency": "inconclusive: 10.3 µM [activator, partial curve, poor fit]"},
      {"compound": "CSc1nc(N)nc(SCCS(=O)(=O)c2ccc(Cl)cc2)c1C#N", "Potency": "inconclusive: 29.1 µM [activator, single point]"},
      {"compound": "N#Cc1c(N2CCCCC2)nc(N2CCCCC2)c2c1CCN(Cc1ccccc1)C2", "Potency": "inconclusive: 29.1 µM [activator, single point]"},
      {"compound": "Cc1ccc(OCc2cc(C(=O)N(C)CCc3ccccn3)no2)cn1", "Potency": "inconclusive: 32.6 µM [activator, single point]"},
      {"compound": "COc1ccc(C(=O)/C=C/c2cn(CC(O)CN3CCOCC3)c3ccccc23)cc1", "note": "(stereo not given)", "Potency": "active: 14.6 µM"},
      {"compound": "Cc1cccc2c(N)c3c(nc12)N(C)CC3", "re-replication activation": "inactive: 0.357%"},
      {"compound": "N#C/C(=C\\c1c(N2CCCCC2)nc2ccccn2c1=O)C(=O)NCc1ccco1", "re-replication activation": "inactive: 6.6%"},
      {"compound": "CCN(CC)c1ccc(NC(=O)COC(=O)Cc2ccsc2)cc1", "Potency": "inconclusive: 29.1 µM [activator, single point]"},
      {"compound": "CN(C)CCCNc1cc(C(C)(C)C)nc2c(-c3ccccc3)cnn12", "Potency": "inconclusive: 25.9 µM [activator, single point]"},
      {"compound": "CCCCCCCCNC(=O)/C(C#N)=C/c1ccc2c(c1)OCCO2", "re-replication activation": "inactive: -138%"},
      {"compound": "CCOC(=O)c1ccc(N=c2sc(C(=O)OC)cc(=O)n2-c2ccc(C(=O)OCC)cc2)cc1", "Potency": "inconclusive: 29.1 µM [activator, single point]"},
      {"compound": "Cc1cc2c(n1-c1ccc(Cl)cc1)CC(C)(C)CC2=O", "re-replication activation": "inactive: -6%"},
      {"compound": "Cc1ccc(/C=N/NC(=O)c2cc(C)oc2C)cc1", "Potency": "active: 4.61 µM"},
      {"compound": "O=C(NNC(=O)C1CCN(S(=O)(=O)c2ccccc2)CC1)c1ccccc1O", "Potency": "inconclusive: 18.4 µM [activator, single point]"},
      {"compound": "COc1cc2c(cc1OC)C(c1ccc3c(c1)OCO3)C1=C(CC(C)(C)CC1=O)N2", "note": "(stereo not given)", "re-replication activation": "inactive: -4.45%"},
      {"compound": "COC(=O)c1ccc(C2C(C(=O)c3cc4ccccc4o3)=C(O)C(=O)N2c2cc(C)on2)cc1", "note": "(stereo not given)", "Potency": "inconclusive: 29.1 µM [activator, single point]"},
      {"compound": "O=C(C[n+]1ccc(/C=N/O)cc1)NC(=O)Nc1ccccc1", "Potency": "inconclusive: 3.66 µM [activator, full curve, poor fit]"},
      {"compound": "O=c1c(N=Nc2ccc(O)cc2)c(-c2ccccc2)[nH]n1-c1ccc([N+](=O)[O-])cc1", "Potency": "inconclusive: 10.3 µM [activator, partial curve, poor fit]"},
      {"compound": "CCOc1ccccc1C1N=C(c2ccc(OC)cc2)CC(c2ccccc2O)N1", "note": "(stereo not given)", "Potency": "inconclusive: 29.1 µM [activator, single point]"},
      {"compound": "Cc1nc2ccc([N+](=O)[O-])cc2c(=O)n1Cc1ccccc1Br", "re-replication activation": "inactive: -2.27% [at 9.22 µM]"},
      {"compound": "Cc1ccc(C(=O)NC2c3ccccc3-c3ccccc32)cc1", "Potency": "active: 13 µM"},
      {"compound": "Oc1ccc(NCc2ccc(OCc3ccccc3)cc2)cc1", "Potency": "inconclusive: 29.1 µM [activator, single point]"},
      {"compound": "Cc1cc(C(=O)N2CCN(S(=O)(=O)c3ccccc3)CC2)c(C)o1", "Potency": "inconclusive: 18.4 µM [activator, single point]"},
      {"compound": "Cn1c(-c2ccc(F)cc2)cc2onc(-c3c(F)cccc3Cl)c2c1=O", "re-replication activation": "inactive: -2.16%"},
      {"compound": "Cc1ccc2cc(CCl)c(Cl)nc2c1", "Potency": "inconclusive: 5.8 µM [activator, full curve, poor fit]"},
      {"compound": "O=C(CSc1nccn1-c1ncc(C(F)(F)F)cc1Cl)c1ccc(Cl)cc1", "re-replication activation": "inactive: 0.941% [at 9.22 µM]"},
      {"compound": "O=S(=O)(Cc1ccccc1)NC1c2ccccc2Oc2ccccc21", "Potency": "inconclusive: 29.1 µM [activator, single point]"},
      {"compound": "CCOC(=O)Nc1ccc2nc(Sc3ccc(Cl)cc3)sc2c1", "Potency": "active: 16.4 µM"},
      {"compound": "COc1ccc2oc(C(=O)N(C)Cc3ccc(OC(F)F)cc3)c(C)c2c1", "Potency": "inconclusive: 32.6 µM [activator, partial curve, poor fit]"},
      {"compound": "O=C(NN=C1CCCC1)c1n[nH]c2c1CCC2", "Potency": "inconclusive: 20.6 µM [activator, single point]"},
      {"compound": "CCOC(=O)N1CCC(c2cc(=O)n3[nH]c(C)c(-c4ccc(F)cc4)c3n2)CC1", "Potency": "inconclusive: 20.6 µM [activator, single point]"},
      {"compound": "Cc1ccccc1CSCc1nc(N)nc(Nc2ccccc2C)n1", "re-replication activation": "inactive: -138%"},
      {"compound": "c1ccc2c(c1)CCCC2C1=NCCN1", "note": "(stereo not given)", "Potency": "inconclusive: 1.26 µM [activator, partial curve]"},
      {"compound": "CC1NC(=O)NC1CCCCC(=O)O", "note": "(stereo not given)", "re-replication activation": "inactive: -6.22%"},
      {"compound": "CC(=O)c1ccc(Nc2c3c(nc4ccccc24)CCCC3)cc1", "Potency": "inconclusive: 10.3 µM [activator, partial curve, poor fit]"},
      {"compound": "COC(=O)/C(=C/N(C)C)C(=O)N1CCN(c2ccc(Cl)c(Cl)c2)CC1", "Potency": "inconclusive: 29.1 µM [activator, single point]"},
      {"compound": "O=C(O)COc1ccccc1/C=C1\\SC(=Nc2ccc(F)cc2)N(c2ccc(F)cc2)C1=O", "Potency": "inconclusive: 29.1 µM [activator, single point]"},
      {"compound": "CC[C@H](CO)Oc1cc(NCc2ccc(Cl)c(Cl)c2)c2ncn(C(C)C)c2c1", "re-replication activation": "inactive: 17.7%"},
      {"compound": "CCOC(=O)c1[nH]c(C)c(/C(O)=C2\\C(=O)C(=O)N(CCN3CCOCC3)C2c2cccs2)c1C", "note": "(stereo not given)", "Potency": "inconclusive: 29.1 µM [activator, single point]"},
      {"compound": "C#CCOc1ccccc1/C=C1/C(=O)ON=C1C", "Potency": "inconclusive: 29.1 µM [activator, single point]"},
      {"compound": "c1cn2c(NC3CCCC3)c(-c3ccc(N4CCOCC4)cc3)nc2cn1", "re-replication activation": "inactive: 5.49%"},
      {"compound": "Cc1ccc(NC(=O)CN(C)C(=O)Cn2ncc(Cl)c(Cl)c2=O)cc1", "Potency": "inconclusive: 4.11 µM [activator, full curve, poor fit]"},
      {"compound": "CCn1nc(NC(=O)c2ccccn2)c2cc3cc(C)ccc3nc21", "Potency": "inconclusive: 2.59 µM [activator, partial curve, poor fit]"},
      {"compound": "COc1ccccc1CNC(=O)CSc1nnc2c(n1)[nH]c1ccc(F)cc12", "re-replication activation": "inactive: -15.7%"},
      {"compound": "CCN1/C(=C/C=C/c2oc3ccc4ccccc4c3[n+]2CC)Oc2ccc3ccccc3c21", "Potency": "inconclusive: 2.06 µM [activator, full curve]"},
      {"compound": "CCOc1ccccc1NS(=O)(=O)c1ccc(OC)c(OC)c1", "re-replication activation": "inactive: -24%"},
      {"compound": "COc1cccc(N2CCN(S(=O)(=O)c3cc4c(cc3C)N(C)CCO4)CC2)c1", "Potency": "inconclusive: 18.4 µM [activator, partial curve, poor fit]"},
      {"compound": "COc1cccc(CCc2ccccc2OCC(CN(C)C)OC(=O)CCC(=O)O)c1", "note": "(stereo not given)", "Potency": "active: 29.9 µM"},
      {"compound": "O=C(c1ccc2ncsc2c1)N1CCN(c2cccc(C(F)(F)F)c2)CC1", "Potency": "inconclusive: 18.4 µM [activator, partial curve, poor fit]"},
      {"compound": "N#C/C(=C(/O)CN1CCCCC1)c1nc(-c2ccc(Cl)cc2)cs1", "re-replication activation": "inactive: 3.85%"}
    ]}
  ]
}
